Laboratory results from paper PMC11655868.
Like-named read-outs stand apart in the source and are kept apart here. Results are given in words; binding and its absence hold for the method and conditions named. Binding seen in cells or lysates may run through a third protein. Some results given as binding are weak or reduced against the parent protein; the word gives no strength. For part of these data: Tags and fused reporters may be left off the sequences shown.

Chains of the proteins cited; added tags and fusions are not shown.
UniProt Q01094: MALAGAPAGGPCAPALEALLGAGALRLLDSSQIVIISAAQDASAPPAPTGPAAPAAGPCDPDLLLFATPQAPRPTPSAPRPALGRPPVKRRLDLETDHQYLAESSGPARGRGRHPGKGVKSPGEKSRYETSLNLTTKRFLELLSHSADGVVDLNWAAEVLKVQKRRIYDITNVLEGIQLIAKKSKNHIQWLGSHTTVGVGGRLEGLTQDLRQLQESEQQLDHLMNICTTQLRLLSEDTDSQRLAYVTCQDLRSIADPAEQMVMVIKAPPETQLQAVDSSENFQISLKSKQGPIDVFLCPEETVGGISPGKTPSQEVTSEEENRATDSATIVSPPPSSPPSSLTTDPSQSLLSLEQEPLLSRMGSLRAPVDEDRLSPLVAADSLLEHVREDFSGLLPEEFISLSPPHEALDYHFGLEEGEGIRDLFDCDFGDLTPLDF
UniProt P20700: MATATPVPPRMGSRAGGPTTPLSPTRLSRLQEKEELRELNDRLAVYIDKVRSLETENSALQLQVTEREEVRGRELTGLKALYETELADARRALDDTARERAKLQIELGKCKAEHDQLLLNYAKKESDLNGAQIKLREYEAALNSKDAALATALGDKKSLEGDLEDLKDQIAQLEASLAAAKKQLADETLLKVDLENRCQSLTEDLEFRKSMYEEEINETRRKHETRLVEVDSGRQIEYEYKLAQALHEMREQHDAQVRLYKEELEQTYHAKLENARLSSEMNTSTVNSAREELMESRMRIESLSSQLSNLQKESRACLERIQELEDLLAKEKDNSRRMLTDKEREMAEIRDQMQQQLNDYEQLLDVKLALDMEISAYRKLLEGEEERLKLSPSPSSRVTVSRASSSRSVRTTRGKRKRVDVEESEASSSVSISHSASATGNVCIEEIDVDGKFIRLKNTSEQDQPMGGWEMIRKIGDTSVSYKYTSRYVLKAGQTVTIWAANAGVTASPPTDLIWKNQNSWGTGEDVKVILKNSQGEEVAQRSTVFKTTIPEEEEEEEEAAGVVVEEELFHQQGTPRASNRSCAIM
UniProt P51784: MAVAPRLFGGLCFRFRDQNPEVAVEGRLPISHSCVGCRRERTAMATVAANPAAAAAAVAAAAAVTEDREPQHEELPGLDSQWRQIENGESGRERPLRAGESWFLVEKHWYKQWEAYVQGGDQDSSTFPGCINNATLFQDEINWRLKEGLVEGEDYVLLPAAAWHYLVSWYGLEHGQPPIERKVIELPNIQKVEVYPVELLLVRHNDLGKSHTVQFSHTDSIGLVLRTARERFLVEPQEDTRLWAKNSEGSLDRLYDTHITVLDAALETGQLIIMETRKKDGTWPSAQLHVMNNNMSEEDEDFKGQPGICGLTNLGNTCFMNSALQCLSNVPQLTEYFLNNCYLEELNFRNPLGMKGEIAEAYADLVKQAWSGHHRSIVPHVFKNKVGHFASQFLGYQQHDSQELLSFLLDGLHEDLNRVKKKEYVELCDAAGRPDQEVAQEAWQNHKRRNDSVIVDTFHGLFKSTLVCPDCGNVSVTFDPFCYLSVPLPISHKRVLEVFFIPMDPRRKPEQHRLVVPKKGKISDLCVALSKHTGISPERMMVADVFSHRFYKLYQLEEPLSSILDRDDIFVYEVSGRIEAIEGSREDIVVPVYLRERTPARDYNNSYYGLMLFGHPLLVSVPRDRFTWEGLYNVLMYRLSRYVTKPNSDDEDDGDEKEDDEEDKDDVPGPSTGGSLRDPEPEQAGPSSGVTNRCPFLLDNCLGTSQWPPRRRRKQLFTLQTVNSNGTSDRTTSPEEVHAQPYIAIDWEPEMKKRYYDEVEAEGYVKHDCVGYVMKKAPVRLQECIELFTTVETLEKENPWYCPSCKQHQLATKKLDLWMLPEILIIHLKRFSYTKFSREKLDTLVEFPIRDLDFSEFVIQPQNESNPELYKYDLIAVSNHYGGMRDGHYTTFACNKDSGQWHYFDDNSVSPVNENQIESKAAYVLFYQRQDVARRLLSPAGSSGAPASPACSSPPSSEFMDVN

T1: full-length RRM1 (Flag-tagged construct) (UniProt P23921)
T1 sequence: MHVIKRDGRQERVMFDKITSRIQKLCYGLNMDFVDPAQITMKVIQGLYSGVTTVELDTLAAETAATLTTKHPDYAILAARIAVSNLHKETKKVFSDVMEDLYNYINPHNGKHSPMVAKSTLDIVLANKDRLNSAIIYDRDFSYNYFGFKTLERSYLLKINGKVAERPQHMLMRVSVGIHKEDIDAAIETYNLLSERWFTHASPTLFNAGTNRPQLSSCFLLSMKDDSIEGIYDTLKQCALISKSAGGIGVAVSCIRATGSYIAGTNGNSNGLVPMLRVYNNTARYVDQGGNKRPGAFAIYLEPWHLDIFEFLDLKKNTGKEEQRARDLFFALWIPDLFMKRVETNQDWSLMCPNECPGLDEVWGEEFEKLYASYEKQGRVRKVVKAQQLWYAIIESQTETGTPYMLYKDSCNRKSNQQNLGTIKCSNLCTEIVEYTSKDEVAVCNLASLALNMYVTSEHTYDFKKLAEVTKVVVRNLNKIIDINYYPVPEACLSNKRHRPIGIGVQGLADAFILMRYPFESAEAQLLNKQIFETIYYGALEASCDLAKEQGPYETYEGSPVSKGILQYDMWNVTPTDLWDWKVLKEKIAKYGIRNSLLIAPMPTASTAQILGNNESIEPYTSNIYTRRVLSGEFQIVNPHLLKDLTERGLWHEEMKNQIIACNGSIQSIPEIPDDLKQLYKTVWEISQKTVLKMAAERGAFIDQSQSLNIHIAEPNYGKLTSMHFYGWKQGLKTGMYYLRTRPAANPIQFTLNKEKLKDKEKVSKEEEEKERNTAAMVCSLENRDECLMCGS

T2: Ribonucleotide reductase M1 (RRM1) (human (endogenous in HeLa)) (UniProt P23921)
T2 sequence: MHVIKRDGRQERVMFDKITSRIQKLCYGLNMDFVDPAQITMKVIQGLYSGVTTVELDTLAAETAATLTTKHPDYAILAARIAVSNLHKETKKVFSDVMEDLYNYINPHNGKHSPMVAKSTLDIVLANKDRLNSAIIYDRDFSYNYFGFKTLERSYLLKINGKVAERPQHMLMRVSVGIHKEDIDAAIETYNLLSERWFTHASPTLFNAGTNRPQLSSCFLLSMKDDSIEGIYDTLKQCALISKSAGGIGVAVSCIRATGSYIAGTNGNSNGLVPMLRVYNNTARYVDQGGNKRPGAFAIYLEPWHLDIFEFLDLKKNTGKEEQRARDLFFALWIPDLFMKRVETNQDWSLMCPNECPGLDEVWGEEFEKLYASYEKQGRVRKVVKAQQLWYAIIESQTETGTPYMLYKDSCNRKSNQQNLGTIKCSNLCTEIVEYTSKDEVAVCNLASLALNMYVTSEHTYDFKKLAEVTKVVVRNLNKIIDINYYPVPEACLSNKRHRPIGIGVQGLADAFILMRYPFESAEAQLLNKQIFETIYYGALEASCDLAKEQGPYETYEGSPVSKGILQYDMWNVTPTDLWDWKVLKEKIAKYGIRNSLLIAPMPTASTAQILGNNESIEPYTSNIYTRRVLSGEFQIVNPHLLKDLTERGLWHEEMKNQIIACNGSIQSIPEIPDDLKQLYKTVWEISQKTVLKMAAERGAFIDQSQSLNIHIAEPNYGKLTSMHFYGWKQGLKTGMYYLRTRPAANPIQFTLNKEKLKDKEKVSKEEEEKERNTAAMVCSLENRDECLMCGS


Key:
[1] = target: T1, full-length RRM1 (Flag-tagged construct); assay: co-IP; HEK293T cells transfected with RRM1 constructs, 5 Gy irradiation; immunoprecipitation with anti-flag antibody, immunoblot
[2] = target: T2, Ribonucleotide reductase M1 (RRM1) (human (endogenous in HeLa)); assay: co-IP; endogenous proteins in HeLa cell lysates; respective antibody or non-specific IgG with protein G-agarose beads overnight at 4 °C, five washes with PBS, Western blot; cells untreated or 5 Gy irradiated, wild-type compared with RRM1 knockdown
[3] = target: E2F1 (human (endogenous in HeLa)) (UniProt Q01094); assay: as above
[4] = target: T2, Ribonucleotide reductase M1 (RRM1) (human (endogenous in HeLa)); assay: as above; remark: listed apart in the source

Molecule	binding [1]	binding [2]	binding [3]	binding [4]
LaminB1 (from UniProt P20700 1-586)	binds	binds		
USP11 (from UniProt P51784 1-963)	binds	binds	binds	
NUP50 (protein, UniProt Q9UKX7 1-468) MAKRNAEKELTDRNWDQEDEAEEVGTFSMASEEVLKNRAIKKAKRRNVGFESDTGGAFKGFKGLVVPSGGGRFSGFGSGAGGKPLEGLSNGNNITSAPPFASAKAAADPKVAFGSLAANGPTTLVDKVSNPKTNGDSQQPSSSGLASSKACVGNAYHKQLAALNCSVRDWIVKHVNTNPLCDLTPIFKDYEKYLANIEQQHGNSGRNSESESNKVAAETQSPSLFGSTKLQQESTFLFHGNKTEDTPDKKMEVASEKKTDPSSLGATSASFNFGKKVDSSVLGSLSSVPLTGFSFSPGNSSLFGKDTTQSKPVSSPFPTKPLEGQAEGDSGECKGGDEEENDEPPKVVVTEVKEEDAFYSKKCKLFYKKDNEFKEKGIGTLHLKPTANQKTQLLVRADTNLGNILLNVLIPPNMPCTRTGKNNVLIVCVPNPPIDEKNATMPVTMLIRVKTSEDADELHKILLEKKDA				binds
